Test results from paper PMC10141581.
These are yes or no findings as the source states them, for the method shown. Binding seen in cells or lysates may run through a third protein. Here binding means that the protein was enriched with, or labelled near, the bait; the list need not be complete.

Sequences of proteins named here, by UniProt entry; tags and fusion partners are left off. Residues count along the entry.
UniProt P63104, residues 1-230: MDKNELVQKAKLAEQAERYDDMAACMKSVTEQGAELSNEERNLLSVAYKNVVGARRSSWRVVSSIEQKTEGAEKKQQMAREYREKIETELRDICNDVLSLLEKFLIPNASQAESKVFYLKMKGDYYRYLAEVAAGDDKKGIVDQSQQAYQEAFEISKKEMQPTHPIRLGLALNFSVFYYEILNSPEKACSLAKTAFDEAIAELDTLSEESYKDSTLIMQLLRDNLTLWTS

B1: Bcl2-associated agonist of cell death (BAD) (protein, UniProt Q92934 1-168)
chain: MFQIPEFEPSEQEDSSSAERGLGPSPAGDGPSGSGKHHRQAPGLLWDASHQQEQPTSSSHHGGAGAVEIRSRHSSYPAGTEDDEGMGEEPSPFRGRSRSAPPNLWAAQRYGRELRRMSDEFVDSFKKGLPRPKSAGTATQMRQSSSWTRVFQSWWDRNLGRGSSAPSQ
B2: TRIM11 (protein, UniProt Q96F44 1-468)
chain: MAAPDLSTNLQEEATCAICLDYFTDPVMTDCGHNFCRECIRRCWGQPEGPYACPECRELSPQRNLRPNRPLAKMAEMARRLHPPSPVPQGVCPAHREPLAAFCGDELRLLCAACERSGEHWAHRVRPLQDAAEDLKAKLEKSLEHLRKQMQDALLFQAQADETCVLWQKMVESQRQNVLGEFERLRRLLAEEEQQLLQRLEEEELEVLPRLREGAAHLGQQSAHLAELIAELEGRCQLPALGLLQDIKDALRRVQDVKLQPPEVVPMELRTVCRVPGLVETLRRFRGDVTLDPDTANPELILSEDRRSVQRGDLRQALPDSPERFDPGPCVLGQERFTSGRHYWEVEVGDRTSWALGVCRENVNRKEKGELSAGNGFWILVFLGSYYNSSERALAPLRDPPRRVGIFLDYEAGHLSFYSATDGSLLFIFPEIPFSGTLRPLFSPLSSSPTPMTICRPKGGSGDTLAPQ

Target: 14-3-3ζ WT (human) (UniProt P63104)
Experiment: affinity purification with mass spectrometry; 14-3-3ζ (WT, pSer58, nhpSer58) covalently coupled to NHS-Sepharose, incubated with HEK293T lysate 2 h at 25 °C (50 mM Tris pH 7.5, 150 mM NaCl, 50 nM Calyculin A), washed with 350 mM NaCl, eluted with 6 M guanidine-HCl; label-free quantitative MS; only the target purified

Binder	binding
B1	binds
B2	binds
